The source of these data is paper PMC4672292.

By UniProt entry, the sequences of proteins in these tests, tags left out.
UniProt P06136: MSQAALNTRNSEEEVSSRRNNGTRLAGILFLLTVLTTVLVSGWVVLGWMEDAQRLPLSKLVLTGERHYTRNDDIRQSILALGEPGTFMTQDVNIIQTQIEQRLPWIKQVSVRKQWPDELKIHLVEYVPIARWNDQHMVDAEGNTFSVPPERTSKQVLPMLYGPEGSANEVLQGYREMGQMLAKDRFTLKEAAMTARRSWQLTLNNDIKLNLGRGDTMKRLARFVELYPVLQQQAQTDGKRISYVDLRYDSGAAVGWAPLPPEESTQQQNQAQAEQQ

Assay [1] has as its target FtsQ (E. coli (endogenous in MC4100)) (UniProt P06136). The experiment in a line: native gel or EMSA; 1 MDa band (found by anti-FtsQ) excised from the Coomassie-stained CN-PAGE gel of mid-exponential cells, run on SDS-PAGE, Western-blotted and probed with antibodies against division proteins. (A gel shift assay detects complexes by their altered migration in electrophoresis.)

Assay [2] shares this target. The experiment in a line: native gel or EMSA; as a3 but gel fragment cut at the same height from the lane of stationary phase cells.
The target is the same in assay [3]. The experiment in a line: native gel or EMSA; clear native PAGE (CN-PAGE, 4 °C) of mid-exponential E. coli MC4100 whole cells treated with lysozyme and solubilised with 1% DDM (750 mM aminocaproic acid, 50 mM Bis Tris pH 7.0); native gel Western-blotted and probed with antibodies; co-migration at about 1 MDa; also cells with an extra plasmid copy of ftsQ or ftsQ-D237N, without or with 0.2% arabinose.

For assay [4] the target is unchanged. The experiment in a line: condition: only cells in early stationary growth phase; native gel or EMSA; as a1 but cells sampled in early stationary growth phase (OD600 3.5-4.0).

Results are given in words; binding and its absence hold for the method and conditions named. Some binding calls cover weakened binding; strength is not graded here.

B1: FtsN (protein, UniProt P29131 1-319)
chain: MAQRDYVRRSQPAPSRRKKSTSRKKQRNLPAVSPAMVAIAAAVLVTFIGGLYFITHHKKEESETLQSQKVTGNGLPPKPEERWRYIKELESRQPGVRAPTEPSAGGEVKTPEQLTPEQRQLLEQMQADMRQQPTQLVEVPWNEQTPEQRQQTLQRQRQAQQLAEQQRLAQQSRTTEQSWQQQTRTSQAAPVQAQPRQSKPASSQQPYQDLLQTPAHTTAQSKPQQAAPVARAADAPKPTAEKKDERRWMVQCGSFRGAEQAETVRAQLAFEGFDSKITTNNGWNRVVIGPVKGKENADSTLNRLKMAGHTNCIRLAAGG
Consider B1, for which the binding entry in assay [1] is “binds”; in assay [2], “no binding (condition: cells in stationary growth phase)”; in assay [3], “binds”.

B2: FtsK (protein, UniProt P46889 1-1329)
chain: MSQEYIEDKEVTLTKLSSGRRLLEALLILIVLFAVWLMAALLSFNPSDPSWSQTAWHEPIHNLGGMPGAWLADTLFFIFGVMAYTIPVIIVGGCWFAWRHQSSDEYIDYFAVSLRIIGVLALILTSCGLAAINADDIWYFASGGVIGSLLSTTLQPLLHSSGGTIALLCVWAAGLTLFTGWSWVTIAEKLGGWILNILTFASNRTRRDDTWVDEDEYEDDEEYEDENHGKQHESRRARILRGALARRKRLAEKFINPMGRQTDAALFSGKRMDDDEEITYTARGVAADPDDVLFSGNRATQPEYDEYDPLLNGAPITEPVAVAAAATTATQSWAAPVEPVTQTPPVASVDVPPAQPTVAWQPVPGPQTGEPVIAPAPEGYPQQSQYAQPAVQYNEPLQQPVQPQQPYYAPAAEQPAQQPYYAPAPEQPVAGNAWQAEEQQSTFAPQSTYQTEQTYQQPAAQEPLYQQPQPVEQQPVVEPEPVVEETKPARPPLYYFEEVEEKRAREREQLAAWYQPIPEPVKEPEPIKSSLKAPSVAAVPPVEAAAAVSPLASGVKKATLATGAAATVAAPVFSLANSGGPRPQVKEGIGPQLPRPKRIRVPTRRELASYGIKLPSQRAAEEKAREAQRNQYDSGDQYNDDEIDAMQQDELARQFAQTQQQRYGEQYQHDVPVNAEDADAAAEAELARQFAQTQQQRYSGEQPAGANPFSLDDFEFSPMKALLDDGPHEPLFTPIVEPVQQPQQPVAPQQQYQQPQQPVPPQPQYQQPQQPVAPQPQYQQPQQPVAPQQQYQQPQQPVAPQQQYQQPQQPVAPQPQDTLLHPLLMRNGDSRPLHKPTTPLPSLDLLTPPPSEVEPVDTFALEQMARLVEARLADFRIKADVVNYSPGPVITRFELNLAPGVKAARISNLSRDLARSLSTVAVRVVEVIPGKPYVGLELPNKKRQTVYLREVLDNAKFRDNPSPLTVVLGKDIAGEPVVADLAKMPHLLVAGTTGSGKSVGVNAMILSMLYKAQPEDVRFIMIDPKMLELSVYEGIPHLLTEVVTDMKDAANALRWCVNEMERRYKLMSALGVRNLAGYNEKIAEADRMMRPIPDPYWKPGDSMDAQHPVLKKEPYIVVLVDEFADLMMTVGKKVEELIARLAQKARAAGIHLVLATQRPSVDVITGLIKANIPTRIAFTVSSKIDSRTILDQAGAESLLGMGDMLYSGPNSTLPVRVHGAFVRDQEVHAVVQDWKARGRPQYVDGITSDSESEGGAGGFDGAEELDPLFDQAVQFVTEKRKASISGVQRQFRIGYNRAARIIEQMEAQGIVSEQGHNGNREVLAPPPFD
Consider B2, for which the binding entry is “binds” in assay [1], “no binding” in assay [4], “no binding (condition: cells in stationary growth phase)” in assay [2] and “binds” in assay [3].
